In paper PMC9010301 one finds binding data, which are given here for five molecules.

No constants are given. Whether binding was seen depends on the method and setting. Some entries that bind do so weakly or less than the wild type.

Common to all, as to experiment: cryo-EM structure; purified Rad24-RFC 1.8 μM, 9–1-1 clamp 2.2 μM, double tailed DNA (5′- and 3′-recessed junctions) 2.7 μM, 0.5 mM ATPγS, 5 mM MgAcetate; ice-water bath 30 min; two conformations (clamp closed, clamp open) at 3.2 Å; both purified
For test [1], the target named is T1, Ddc1 (subunit of the S.c. 9–1-1 clamp) (S. cerevisiae) (UniProt Q08949).
T1 sequence: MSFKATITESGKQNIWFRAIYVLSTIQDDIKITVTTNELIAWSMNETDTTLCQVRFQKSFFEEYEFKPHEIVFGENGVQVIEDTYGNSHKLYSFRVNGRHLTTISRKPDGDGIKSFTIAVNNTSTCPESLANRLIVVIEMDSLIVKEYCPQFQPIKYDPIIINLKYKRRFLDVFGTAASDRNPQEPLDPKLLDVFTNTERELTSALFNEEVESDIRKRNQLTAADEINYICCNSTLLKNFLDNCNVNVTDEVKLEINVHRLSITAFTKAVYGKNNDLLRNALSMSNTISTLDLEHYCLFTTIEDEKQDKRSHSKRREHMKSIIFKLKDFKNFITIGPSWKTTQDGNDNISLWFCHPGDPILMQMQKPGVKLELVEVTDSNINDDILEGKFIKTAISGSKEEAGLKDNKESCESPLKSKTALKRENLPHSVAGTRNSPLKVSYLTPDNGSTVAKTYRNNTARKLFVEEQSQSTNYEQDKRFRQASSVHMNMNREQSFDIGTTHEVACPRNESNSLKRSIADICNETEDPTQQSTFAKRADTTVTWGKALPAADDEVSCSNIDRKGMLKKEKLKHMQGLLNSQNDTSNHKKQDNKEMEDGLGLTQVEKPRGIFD

The target of test [2] is T2, Rfc5 (subunit of S.c. Rad24-RFC) (S. cerevisiae) (UniProt P38251).
T2 sequence: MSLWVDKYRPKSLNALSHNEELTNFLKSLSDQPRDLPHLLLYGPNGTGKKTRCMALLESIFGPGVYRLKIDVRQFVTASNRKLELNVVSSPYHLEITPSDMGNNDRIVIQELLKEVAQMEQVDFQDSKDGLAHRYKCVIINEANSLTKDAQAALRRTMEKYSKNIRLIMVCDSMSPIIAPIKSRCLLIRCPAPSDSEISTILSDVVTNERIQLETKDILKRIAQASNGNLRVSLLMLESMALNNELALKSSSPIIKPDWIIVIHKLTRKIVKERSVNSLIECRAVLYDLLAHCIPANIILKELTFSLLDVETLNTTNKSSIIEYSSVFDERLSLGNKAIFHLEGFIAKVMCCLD

Test [3] has as its target T3, Rad17 (subunit of the S.c. 9–1-1 clamp) (S. cerevisiae) (UniProt P48581).
T3 sequence: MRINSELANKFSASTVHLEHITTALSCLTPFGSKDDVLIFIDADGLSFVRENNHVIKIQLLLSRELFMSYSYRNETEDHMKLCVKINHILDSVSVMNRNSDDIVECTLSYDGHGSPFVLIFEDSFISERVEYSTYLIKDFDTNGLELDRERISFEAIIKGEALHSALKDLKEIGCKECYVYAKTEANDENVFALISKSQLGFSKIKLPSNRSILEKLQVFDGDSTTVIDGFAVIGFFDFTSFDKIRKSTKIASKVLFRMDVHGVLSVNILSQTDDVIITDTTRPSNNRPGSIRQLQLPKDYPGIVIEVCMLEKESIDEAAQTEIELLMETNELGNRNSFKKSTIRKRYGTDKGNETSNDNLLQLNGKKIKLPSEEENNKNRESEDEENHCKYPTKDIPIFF

In test [4] the target is T4, Rfc2 (subunit of S.c. Rad24-RFC) (S. cerevisiae) (UniProt P40348).
T4 sequence: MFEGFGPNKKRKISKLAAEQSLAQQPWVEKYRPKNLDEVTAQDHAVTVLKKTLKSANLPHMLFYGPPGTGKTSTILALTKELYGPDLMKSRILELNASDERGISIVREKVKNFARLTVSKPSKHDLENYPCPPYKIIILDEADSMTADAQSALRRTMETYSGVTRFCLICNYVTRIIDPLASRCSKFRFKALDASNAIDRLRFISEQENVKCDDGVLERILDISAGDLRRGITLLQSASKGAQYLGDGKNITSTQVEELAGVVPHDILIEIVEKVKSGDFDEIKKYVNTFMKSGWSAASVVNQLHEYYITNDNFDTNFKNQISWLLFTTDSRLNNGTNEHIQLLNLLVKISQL

In test [5] the target is T5, Rfc3 (subunit of S.c. Rad24-RFC) (S. cerevisiae) (UniProt P38629).
T5 sequence: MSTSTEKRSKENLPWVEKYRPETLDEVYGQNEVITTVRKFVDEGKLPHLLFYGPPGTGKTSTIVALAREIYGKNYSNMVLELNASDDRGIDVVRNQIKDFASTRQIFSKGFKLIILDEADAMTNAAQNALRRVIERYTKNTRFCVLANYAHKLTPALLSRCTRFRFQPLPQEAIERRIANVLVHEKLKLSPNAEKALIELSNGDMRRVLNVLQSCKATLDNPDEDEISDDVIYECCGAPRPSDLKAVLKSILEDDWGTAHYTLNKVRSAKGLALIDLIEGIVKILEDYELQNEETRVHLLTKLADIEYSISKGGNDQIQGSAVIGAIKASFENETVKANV

The target in test [6] is T6, Rfc4 (subunit of S.c. Rad24-RFC) (S. cerevisiae) (UniProt P40339).
T6 sequence: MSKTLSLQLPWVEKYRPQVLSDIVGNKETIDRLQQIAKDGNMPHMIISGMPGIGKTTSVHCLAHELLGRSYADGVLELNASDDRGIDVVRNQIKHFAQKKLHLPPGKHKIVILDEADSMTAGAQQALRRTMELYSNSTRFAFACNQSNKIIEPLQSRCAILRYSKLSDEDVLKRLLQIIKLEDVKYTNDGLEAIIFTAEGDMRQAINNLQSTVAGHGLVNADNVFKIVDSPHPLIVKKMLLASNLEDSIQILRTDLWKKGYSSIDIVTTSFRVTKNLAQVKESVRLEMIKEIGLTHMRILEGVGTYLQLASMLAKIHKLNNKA

B1: Rfc2 (subunit of S.c. Rad24-RFC) (protein, UniProt P40348 1-353)
chain: MFEGFGPNKKRKISKLAAEQSLAQQPWVEKYRPKNLDEVTAQDHAVTVLKKTLKSANLPHMLFYGPPGTGKTSTILALTKELYGPDLMKSRILELNASDERGISIVREKVKNFARLTVSKPSKHDLENYPCPPYKIIILDEADSMTADAQSALRRTMETYSGVTRFCLICNYVTRIIDPLASRCSKFRFKALDASNAIDRLRFISEQENVKCDDGVLERILDISAGDLRRGITLLQSASKGAQYLGDGKNITSTQVEELAGVVPHDILIEIVEKVKSGDFDEIKKYVNTFMKSGWSAASVVNQLHEYYITNDNFDTNFKNQISWLLFTTDSRLNNGTNEHIQLLNLLVKISQL
For B1, the binding entry in test [1] and in test [2] was “binds” each time.

B2: Rfc3 (subunit of S.c. Rad24-RFC) (protein, UniProt P38629 1-340)
chain: MSTSTEKRSKENLPWVEKYRPETLDEVYGQNEVITTVRKFVDEGKLPHLLFYGPPGTGKTSTIVALAREIYGKNYSNMVLELNASDDRGIDVVRNQIKDFASTRQIFSKGFKLIILDEADAMTNAAQNALRRVIERYTKNTRFCVLANYAHKLTPALLSRCTRFRFQPLPQEAIERRIANVLVHEKLKLSPNAEKALIELSNGDMRRVLNVLQSCKATLDNPDEDEISDDVIYECCGAPRPSDLKAVLKSILEDDWGTAHYTLNKVRSAKGLALIDLIEGIVKILEDYELQNEETRVHLLTKLADIEYSISKGGNDQIQGSAVIGAIKASFENETVKANV
Regarding B2, the binding result in test [3] and in test [4] was “binds” each time.

B3: Rfc4 (subunit of S.c. Rad24-RFC) (protein, UniProt P40339 1-323)
chain: MSKTLSLQLPWVEKYRPQVLSDIVGNKETIDRLQQIAKDGNMPHMIISGMPGIGKTTSVHCLAHELLGRSYADGVLELNASDDRGIDVVRNQIKHFAQKKLHLPPGKHKIVILDEADSMTAGAQQALRRTMELYSNSTRFAFACNQSNKIIEPLQSRCAILRYSKLSDEDVLKRLLQIIKLEDVKYTNDGLEAIIFTAEGDMRQAINNLQSTVAGHGLVNADNVFKIVDSPHPLIVKKMLLASNLEDSIQILRTDLWKKGYSSIDIVTTSFRVTKNLAQVKESVRLEMIKEIGLTHMRILEGVGTYLQLASMLAKIHKLNNKA
Take B3: the binding result in test [3] and in test [5] was “binds” each time.

B4: Ddc1 (subunit of the S.c. 9–1-1 clamp) (protein, UniProt Q08949 1-612)
chain: MSFKATITESGKQNIWFRAIYVLSTIQDDIKITVTTNELIAWSMNETDTTLCQVRFQKSFFEEYEFKPHEIVFGENGVQVIEDTYGNSHKLYSFRVNGRHLTTISRKPDGDGIKSFTIAVNNTSTCPESLANRLIVVIEMDSLIVKEYCPQFQPIKYDPIIINLKYKRRFLDVFGTAASDRNPQEPLDPKLLDVFTNTERELTSALFNEEVESDIRKRNQLTAADEINYICCNSTLLKNFLDNCNVNVTDEVKLEINVHRLSITAFTKAVYGKNNDLLRNALSMSNTISTLDLEHYCLFTTIEDEKQDKRSHSKRREHMKSIIFKLKDFKNFITIGPSWKTTQDGNDNISLWFCHPGDPILMQMQKPGVKLELVEVTDSNINDDILEGKFIKTAISGSKEEAGLKDNKESCESPLKSKTALKRENLPHSVAGTRNSPLKVSYLTPDNGSTVAKTYRNNTARKLFVEEQSQSTNYEQDKRFRQASSVHMNMNREQSFDIGTTHEVACPRNESNSLKRSIADICNETEDPTQQSTFAKRADTTVTWGKALPAADDEVSCSNIDRKGMLKKEKLKHMQGLLNSQNDTSNHKKQDNKEMEDGLGLTQVEKPRGIFD
For B4, in test [3], the binding result is given as “binds”.

B5: Rad24 (subunit of S.c. Rad24-RFC) (protein, UniProt P32641 1-659)
chain: MDSTNLNKRPLLQYSLSSLGSQITKWSSSRPTSPVRKARSTENDFLSKQDTSSILPSINDDGGEQWYEKFKPNCLEQVAIHKRKLKDVQEALDAMFLPNAKHRILLLSGPSGCSKSTVIKELSKILVPKYRQNSNGTSFRSTPNEHKVTEFRGDCIVNDLPQMESFSEFLKGARYLVMSNLSLILIEDLPNVFHIDTRRRFQQLILQWLYSSEPLLPPLVICITECEIPENDNNYRKFGIDYTFSAETIMNKEILMHPRLKRIKFNPINSTLLKKHLKFICVQNMKMLKEKNKWNKRQEVIDYIAQETGDIRSAITTLQFWATSSGSLPISTRESTISYFHAIGKVIHGSHSTNNDNEMINNLFENSNNLLSKEDFKLGILENYNTFNKGEFSISDASSIVDCLSECDNMNGLPESNEYGLREVRKTFRNISKQGHNHGTVYFPREWKVRKLQNSFKVQAEDWLNVSLYKYNAVHSFRNITLEFGYYAPLIRKCQSYKKKYILYYLKNLPSGSSGPKQTMDKFSDIMKVENGIDVVDRIGGPIEALSVEDGLAPLMDNDSNNCDHLEDQKKERDRRLRMLIDQYERNVMMANDDLEDEETSFNDDPIVDSDSDNSNNIGNETFGRSDEDESLCEILSQRQPRKAPVISESLSDSDLEIL
For the molecule B5, the binding entry in test [1] and in test [6] was “binds” throughout.
